Assay results as given in PMC11612967.
No constants are given. Whether binding was seen depends on the method and setting. Binding seen in cells or lysates may run through a third protein. Some results given as binding are weak or reduced against the parent protein; the word gives no strength.

T1: S. cerevisiae Nse2 (S. cerevisiae), P38632
T1 chain: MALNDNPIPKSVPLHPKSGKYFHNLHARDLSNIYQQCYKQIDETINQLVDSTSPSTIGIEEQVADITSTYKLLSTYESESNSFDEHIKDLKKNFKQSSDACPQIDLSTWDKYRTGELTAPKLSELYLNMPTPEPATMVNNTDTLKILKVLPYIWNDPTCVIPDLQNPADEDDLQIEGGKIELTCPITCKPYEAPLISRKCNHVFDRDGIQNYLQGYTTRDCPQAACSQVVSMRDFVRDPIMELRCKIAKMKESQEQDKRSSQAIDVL

T2: S. pombe Nse4 (S. pombe) (UniProt Q6BDR8)
T2 sequence: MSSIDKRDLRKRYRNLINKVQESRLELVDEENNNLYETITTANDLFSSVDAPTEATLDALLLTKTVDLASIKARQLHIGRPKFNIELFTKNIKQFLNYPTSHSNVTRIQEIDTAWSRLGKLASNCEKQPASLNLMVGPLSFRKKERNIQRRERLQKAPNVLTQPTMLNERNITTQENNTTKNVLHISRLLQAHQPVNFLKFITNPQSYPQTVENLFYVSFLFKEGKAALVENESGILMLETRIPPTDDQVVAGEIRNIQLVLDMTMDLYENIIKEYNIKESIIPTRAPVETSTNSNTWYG

T3: S. pombe Nse3 (S. pombe) (UniProt Q9Y7U4)
T3 sequence: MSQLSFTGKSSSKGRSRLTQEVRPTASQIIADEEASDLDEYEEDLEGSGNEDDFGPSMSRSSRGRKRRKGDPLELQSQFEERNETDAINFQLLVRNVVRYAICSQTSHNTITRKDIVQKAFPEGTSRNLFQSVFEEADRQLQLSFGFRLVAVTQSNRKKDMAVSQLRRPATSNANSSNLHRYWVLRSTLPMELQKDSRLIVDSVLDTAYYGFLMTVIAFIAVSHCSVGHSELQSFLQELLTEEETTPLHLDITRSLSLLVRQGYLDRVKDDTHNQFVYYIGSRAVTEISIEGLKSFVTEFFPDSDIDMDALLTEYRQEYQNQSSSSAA

T4: S. pombe Smc6 (S. pombe) (UniProt P53692)
T4 sequence: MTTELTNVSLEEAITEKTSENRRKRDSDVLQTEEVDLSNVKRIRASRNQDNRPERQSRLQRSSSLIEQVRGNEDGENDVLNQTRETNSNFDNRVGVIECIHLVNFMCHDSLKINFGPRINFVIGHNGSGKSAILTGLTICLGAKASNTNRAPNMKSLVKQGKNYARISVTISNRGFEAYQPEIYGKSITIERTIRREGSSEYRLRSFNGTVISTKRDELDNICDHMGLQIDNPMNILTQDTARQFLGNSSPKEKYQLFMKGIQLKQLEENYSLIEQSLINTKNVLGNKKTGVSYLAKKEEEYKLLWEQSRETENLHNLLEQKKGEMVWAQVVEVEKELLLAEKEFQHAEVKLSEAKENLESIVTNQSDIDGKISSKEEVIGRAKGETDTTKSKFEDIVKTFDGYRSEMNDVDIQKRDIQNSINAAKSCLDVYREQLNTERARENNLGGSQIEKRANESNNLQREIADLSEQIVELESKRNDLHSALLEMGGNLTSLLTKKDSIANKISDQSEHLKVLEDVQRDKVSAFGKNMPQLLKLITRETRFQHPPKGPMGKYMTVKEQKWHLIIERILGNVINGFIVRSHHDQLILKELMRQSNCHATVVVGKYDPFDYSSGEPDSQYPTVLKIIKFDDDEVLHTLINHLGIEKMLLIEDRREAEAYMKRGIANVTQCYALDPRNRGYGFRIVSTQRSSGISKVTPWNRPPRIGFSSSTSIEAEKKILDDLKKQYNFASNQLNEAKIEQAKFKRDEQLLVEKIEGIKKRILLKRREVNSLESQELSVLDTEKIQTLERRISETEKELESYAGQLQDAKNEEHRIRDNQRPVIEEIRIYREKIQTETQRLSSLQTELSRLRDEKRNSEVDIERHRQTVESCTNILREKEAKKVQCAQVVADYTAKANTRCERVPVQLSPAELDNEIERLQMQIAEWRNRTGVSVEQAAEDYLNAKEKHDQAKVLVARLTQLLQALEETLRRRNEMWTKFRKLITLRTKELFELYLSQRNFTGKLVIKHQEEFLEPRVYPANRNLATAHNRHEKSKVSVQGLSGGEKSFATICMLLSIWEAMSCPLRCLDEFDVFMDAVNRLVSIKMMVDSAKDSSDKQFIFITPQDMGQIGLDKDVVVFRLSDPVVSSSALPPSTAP

T5: S. pombe Smc5 (S. pombe) (UniProt O13710)
T5 sequence: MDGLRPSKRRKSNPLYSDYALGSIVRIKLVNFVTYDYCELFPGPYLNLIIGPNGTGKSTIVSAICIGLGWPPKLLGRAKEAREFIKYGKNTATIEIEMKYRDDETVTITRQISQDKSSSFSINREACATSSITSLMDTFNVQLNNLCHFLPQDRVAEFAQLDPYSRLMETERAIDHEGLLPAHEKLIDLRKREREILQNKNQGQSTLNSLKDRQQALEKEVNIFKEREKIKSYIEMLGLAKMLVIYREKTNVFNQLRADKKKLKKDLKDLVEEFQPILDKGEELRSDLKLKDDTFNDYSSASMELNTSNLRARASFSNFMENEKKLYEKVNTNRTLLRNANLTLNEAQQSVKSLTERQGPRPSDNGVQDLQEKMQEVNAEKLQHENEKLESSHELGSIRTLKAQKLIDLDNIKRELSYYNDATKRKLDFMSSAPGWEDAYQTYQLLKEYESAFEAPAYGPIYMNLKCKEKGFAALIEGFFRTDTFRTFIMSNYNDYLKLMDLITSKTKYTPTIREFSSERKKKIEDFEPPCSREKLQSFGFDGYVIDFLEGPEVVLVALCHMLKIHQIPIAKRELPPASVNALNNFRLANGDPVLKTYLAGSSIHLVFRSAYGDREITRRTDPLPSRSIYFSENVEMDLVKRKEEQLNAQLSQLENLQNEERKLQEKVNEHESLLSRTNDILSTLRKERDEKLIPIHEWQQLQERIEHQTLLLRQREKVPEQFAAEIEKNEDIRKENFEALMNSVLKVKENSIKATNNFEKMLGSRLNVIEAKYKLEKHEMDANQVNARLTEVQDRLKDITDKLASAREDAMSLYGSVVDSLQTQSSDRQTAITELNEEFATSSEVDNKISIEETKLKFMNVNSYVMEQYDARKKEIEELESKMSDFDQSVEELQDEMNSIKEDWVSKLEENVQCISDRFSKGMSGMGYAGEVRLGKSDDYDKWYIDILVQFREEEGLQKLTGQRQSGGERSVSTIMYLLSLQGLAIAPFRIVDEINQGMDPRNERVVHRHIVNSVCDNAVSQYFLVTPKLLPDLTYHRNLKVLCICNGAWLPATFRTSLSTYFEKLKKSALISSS

T6: S. pombe Nse2 (S. pombe) (UniProt Q4PIR3)
T6 sequence: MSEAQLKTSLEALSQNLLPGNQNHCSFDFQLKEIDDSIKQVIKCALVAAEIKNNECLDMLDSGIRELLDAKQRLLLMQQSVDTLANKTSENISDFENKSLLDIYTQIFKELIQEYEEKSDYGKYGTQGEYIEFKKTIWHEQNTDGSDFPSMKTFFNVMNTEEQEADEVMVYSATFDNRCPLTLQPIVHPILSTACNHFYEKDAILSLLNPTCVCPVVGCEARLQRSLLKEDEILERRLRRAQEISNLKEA

T7: S. pombe Nse1 (S. pombe) (UniProt Q53EK2)
T7 sequence: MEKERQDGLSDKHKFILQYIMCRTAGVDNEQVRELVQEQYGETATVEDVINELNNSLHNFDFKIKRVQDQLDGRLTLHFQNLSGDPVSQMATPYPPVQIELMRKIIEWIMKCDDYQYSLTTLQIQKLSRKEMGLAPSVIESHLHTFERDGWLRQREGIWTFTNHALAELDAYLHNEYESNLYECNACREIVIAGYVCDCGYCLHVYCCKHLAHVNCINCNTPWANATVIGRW

B1: S. cerevisiae Nse1, Q07913 1-336 (protein)
chain: MEVHEEQVSAPVTGDATAKYLLQYILSARGICHENALILALMRLETDASTLNTEWSIQQWVDKLNDYINAINVKLNLLGYKIIRINHGIGRNAVTLKAKQNFESFEDNTAIRAHNNDYAVLQSIVLPESNRFFVYVNLASTEETKLATRFNQNEIEFMKWAIEQFMISGETIVEGPALETSIIVKEVNRILVAATGDSNLAKWRKFSTFTVGSTNLFQFQELTATDIEDLLLRLCELKWFYRTQEGKFGIDLRCIAELEEYLTSMYNLNTCQNCHKLAIQGVRCGNESCREENEETGENSLSQIWHVDCFKHYITHVSKNCDRCGSSLITEGVYVI
B2: S. pombe Nse2 (protein, UniProt Q4PIR3 1-250)
chain: T6 sequence
B3: S. pombe Nse1 (protein, UniProt Q53EK2 1-232)
chain: T7 sequence
B4: S. pombe Nse3 (protein, UniProt Q9Y7U4 1-328)
chain: T3 sequence
B5: S. pombe Nse4 (protein, UniProt Q6BDR8 1-300)
chain: T2 sequence

Biological target: T1, S. cerevisiae Nse2 (S. cerevisiae), …
Assay: pull-down; S. cerevisiae Smc5/6 subunits co-expressed in E. coli Rosetta (DE3), one subunit with a Twin-Strep tag (N- or C-terminal); clarified lysate on Strep-Tactin Sepharose, 1 h at 4°C, 50 mM Tris-HCl pH 7.5, 300 mM NaCl, 5% glycerol; eluted with 2.5 mM desthiobiotin; Coomassie-stained SDS-PAGE
Settings: remark: other sources report otherwise

| binding | Binder |
| --- | --- |
| binds | B1 |

The binders below were run against T2, S. pombe Nse4 (S. pombe) (assay: pull-down; S. pombe Smc5/6 subunits co-expressed in Sf9 cells by baculovirus, one subunit tagged (N- or C-terminal); pellets processed as for the small-scale expression in E. coli; single affinity step; Coomassie-stained SDS-PAGE). Settings: not given.

| binding | Binder |
| --- | --- |
| binds | B2 |
| binds | B3 |
| binds | B4 |

The binders below were run against T3, S. pombe Nse3 (S. pombe) in the same assay as above. Settings: not given.

| binding | Binder |
| --- | --- |
| binds | B5 |
| binds | B2 |
| binds | B3 |

Each binder was assayed against T4, S. pombe Smc6 (S. pombe) in the same assay as above. Settings: not given.

| binding | Binder |
| --- | --- |
| binds | B5 |
| binds | B2 |
| binds | B3 |
| binds | B4 |

What follows are binders tested against T5, S. pombe Smc5 (S. pombe) in the same assay as above. Settings: not given.

| binding | Binder |
| --- | --- |
| binds | B5 |
| binds | B2 |
| binds | B3 |
| binds | B4 |

These binders were tested against T6, S. pombe Nse2 (S. pombe) in the same assay as above. Settings: not given.

| binding | Binder |
| --- | --- |
| binds | B5 |
| binds | B3 |
| binds | B4 |

The binders below were run against T7, S. pombe Nse1 (S. pombe) in the same assay as above. Settings: not given.

| binding | Binder |
| --- | --- |
| binds | B5 |
| binds | B2 |
| binds | B4 |
